Assay results as given in patent US4678787A, “4H-1-benzopyran-4-ones and their sulfur containing analogs” (Warner-Lambert Company, priority 1985, dated 1987).
At least one structure is not confirmed: it was looked up by name or label, or the drawing left a doubt.

Assays:
prolactin release = experiment: Prolactin release in alpha-methyl-para-tyrosine-treated rats; assay type: in vivo, rat
synthesis of dopamine = experiment: Dopamine synthesis in rats treated with gamma-butyrolactone (GBL); assay type: in vivo, rat
[1] = tested on: dopamine neuron firing rate; experiment: Dopamine neuron firing rate, single unit recording experiments; assay type: in vivo

In the case of `O=c1ccoc2cc(OCCCN3CCN(c4ccccc4)CC3)ccc12` [compound 2, 7-[3-(4-phenylpiperazinyl)propoxy]-4H-1-benzopyran-4-one], the prolactin release (prolactin release) is reported as “decrease of prolactin release”, the synthesis of dopamine (synthesis of dopamine) is reported as “inhibition of the synthesis of dopamine” and the “dopamine neuron firing rate” value [1] is reported as “inhibition of dopamine neuron firing rate”.
